According to paper PMC5996148:
“And” between values parts separate entries of the source, which are not always exact repeats. Equal entries are not always repeated. Some of the results follow. For some assays here: The exact form of the protein is not confirmed.

Chains of the proteins cited; added tags and fusions are not shown. Lines headed by an entry give the natural chain unless they say otherwise; changes in a name come on top.
UniProt P08185: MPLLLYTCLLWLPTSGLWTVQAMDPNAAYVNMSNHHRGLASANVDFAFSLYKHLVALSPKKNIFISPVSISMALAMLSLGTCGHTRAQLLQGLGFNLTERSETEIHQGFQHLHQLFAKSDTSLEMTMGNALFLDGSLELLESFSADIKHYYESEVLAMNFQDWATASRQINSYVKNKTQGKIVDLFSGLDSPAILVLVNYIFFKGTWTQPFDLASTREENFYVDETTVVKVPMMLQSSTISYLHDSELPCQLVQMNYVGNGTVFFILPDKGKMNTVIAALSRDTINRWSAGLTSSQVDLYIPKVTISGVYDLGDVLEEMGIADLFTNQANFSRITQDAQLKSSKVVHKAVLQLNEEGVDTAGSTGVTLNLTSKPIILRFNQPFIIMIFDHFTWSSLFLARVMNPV

Assays:
Assay in all cases: protein microarray (ProtoArray v5.0), streptavidin-Alexa Fluor 647
Details in all cases: 3'-biotin; 20 mM Tris (pH 7.5), 5 mM MgCl2, 100 mM KCl, 0.1% Tween-20, A/T-rich and random oligonucleotide blockers; temperature not stated; high values mean tight binding
SCRN2 (human) = system: SCRN2 (human)
SDC1 (human) = system: SDC1 (human)
SDC4 (human) = system: SDC4 (human)
SDF2 (human) = system: SDF2 (human)
SDSL (human) = system: SDSL (human)
SEC13L1 (human) = system: SEC13L1 (human)
SEC31B (human) = system: SEC31B (human)
SELI (human) = system: SELI (human)
SELPLG (human) = system: SELPLG (human)
SENP8 (human) = system: SENP8 (human)
SEPHS2 (human) = system: SEPHS2 (human)
SEPP1 (human) = system: SEPP1 (human)
SEPT1 (human) = system: SEPT1 (human)
SEPT11 (human) = system: SEPT11 (human)
SEPT4 (human) = system: SEPT4 (human)
SEPT6 (human) = system: SEPT6 (human)
SEPT9 (human) = system: SEPT9 (human)
SERPINA10 (human) = system: SERPINA10 (human)
SERPINA6 = SERPINA6 (UniProt P08185)
SERPINA6 (human) = system: SERPINA6 (human)

GGGAGGCTGAGGCAGG [G4-1 biotinylated (PQS2)]
binding signal (SCRN2 (human)): -0.318 z-score | binding signal (SDC1 (human)): -0.34 z-score | binding signal (SDC4 (human)): -0.329 z-score | binding signal (SDF2 (human)): -0.302 z-score | binding signal (SDSL (human)): -0.349 z-score | binding signal (SEC13L1 (human)): -0.357 z-score and -0.26 z-score | binding signal (SEC31B (human)): -0.31 z-score | binding signal (SELI (human)): -0.275 z-score | binding signal (SELPLG (human)): -0.352 z-score | binding signal (SENP8 (human)): -0.349 z-score | binding signal (SEPHS2 (human)): -0.35 z-score | binding signal (SEPP1 (human)): -0.333 z-score | binding signal (SEPT1 (human)): -0.332 z-score | binding signal (SEPT11 (human)): -0.33 z-score | binding signal (SEPT4 (human)): -0.337 z-score and -0.334 z-score | binding signal (SEPT6 (human)): -0.348 z-score and -0.338 z-score | binding signal (SEPT9 (human)): -0.318 z-score | binding signal (SERPINA10 (human)): -0.31 z-score | binding signal (SERPINA6): -0.332 z-score | binding signal (SERPINA6 (human)): -0.356 z-score
